Measurements reported in PubChem BioAssay AID504847 (National Center for Advancing Translational Sciences (NCATS), 2011).
Values joined by “and” are separate entries in the source; they are usually repeats but may differ in a detail not shown here. Identical values can stand only once. About 3,700 (0.93%) of roughly 400,000 compounds were called active. The shares of active, inactive and inconclusive entries below differ from those in the screen. Calls come from the whole dose curve; as a rule, active = well fitted inhibition curve with a large enough effect; inconclusive = small, poorly fitted or top-dose-only effect, or another doubt; inactive = no such curve, though single readings can be large or run the other way. A potency beside an inconclusive call is a rough fit, not a confirmed value. The source holds several records for some structures; these can differ, active in one and inactive in another.

By UniProt entry, the sequences of proteins in these tests, tags left out. Where a name states a change or a piece, a line headed by the entry shows the natural chain unless it says otherwise.
UniProt P11473: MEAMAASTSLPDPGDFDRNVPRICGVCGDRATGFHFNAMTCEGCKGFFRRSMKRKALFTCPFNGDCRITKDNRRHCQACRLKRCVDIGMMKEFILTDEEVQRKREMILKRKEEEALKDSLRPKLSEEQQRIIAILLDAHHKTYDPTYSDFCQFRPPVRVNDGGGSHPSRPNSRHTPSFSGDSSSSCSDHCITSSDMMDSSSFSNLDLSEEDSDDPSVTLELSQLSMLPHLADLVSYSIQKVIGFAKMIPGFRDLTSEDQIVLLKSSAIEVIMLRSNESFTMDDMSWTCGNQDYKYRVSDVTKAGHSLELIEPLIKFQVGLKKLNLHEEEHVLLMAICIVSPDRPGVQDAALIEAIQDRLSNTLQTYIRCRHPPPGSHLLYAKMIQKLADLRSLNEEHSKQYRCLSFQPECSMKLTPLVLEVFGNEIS

target: Vitamin D3 receptor (Homo sapiens) (UniProt P11473); assay: Inhibitors of the vitamin D receptor (VDR): qHTS; details: VDR-SRC2-3 peptide fluorescence polarization, 2 h; max response, negative = inhibition: stronger effect = lower value
How it was run: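 Fluorescence polarization assay of small-molecule disruption of VDR binding to coregulator peptide SRC2-3. Compounds and controls pin-transferred, then read after 2 h incubation at ambient room temperature.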
% is set by controls: 0 for no effect and ±100 for the full control effect; potency is the fitted concentration of half-maximal effect.

Structure (SMILES) | max response, negative = inhibition | Potency
Cc1cccc(NC(=O)CN(C)S(=O)(=O)c2cccs2)c1 | inactive: 7.13% | 
C#CCOCCOCCOCCNc1nc(N2CCN(C(=O)[C@H](CCCCN)n3cc(CN)nn3)CC2)nc(N2CCN(C(=O)[C@H](CCCCN)n3cc([C@@H](N)[C@H](C)CC)nn3)CC2)n1 | inactive: -1.21% | 
C=CCOC(=O)C1=C[C@H](c2ccc(C(F)(F)F)cc2)C[C@H](OCCCCO)O1 |  | inconclusive: 7.08 µM [inhibitor, full curve, poor fit]
Cc1ccc(S(=O)(=O)N2[C@@H](c3ccc(C(C)(C)C)cc3)C(C(=O)O)=CC[C@H]2c2cccc(Cl)c2)cc1 |  | inconclusive: 89.1 µM [inhibitor, partial curve, poor fit]
CSc1ccc2c(c1)C(N1CCN(C)CC1)Cc1ccccc1S2 (stereo not drawn) |  | active: 50.1 µM
CCOC(=O)Cn1c(C)c(Br)c(COC)c(C#N)c1=O |  | inconclusive: 100 µM [inhibitor, single point]
Cc1cccc(CN2CCN(CC(=O)NCc3ccc(Cl)cc3)C2=O)c1 | inactive: -4.88% | 
CCCCN(C(=O)c1ccc(-c2ccc(Cl)cc2)o1)c1c(N)n(CCCC)c(=O)[nH]c1=O |  | active: 70.8 µM
CC(C)Oc1ccc(Cc2n[nH]c(=S)n2Cc2ccccc2)cc1Cl |  | inconclusive: 31.6 µM [inhibitor, single point]
COc1ccc(OC)c(C2CC(=O)N3CN(c4ccc(C)c(Cl)c4)CSC3=C2C#N)c1 (stereo not drawn) |  | active: 15.8 µM
O=C(Nc1ccccc1)N1CCN(Cc2ccc3c(c2)OCO3)CC1 |  | inconclusive: 63.1 µM [inhibitor, partial curve, poor fit]
C=CCOc1ccc(C(=O)Nc2ccccc2C(=O)NCc2cccnc2)cc1 | inactive: 2.32% | 
COc1cc(Cl)c(C)cc1NC(=O)c1ccccc1-n1cnnn1 |  | inconclusive: 89.1 µM [inhibitor, partial curve, poor fit]
COc1cc(/C=N/NC(=O)CCN2CCN(C)CC2)cc2c1OCO2 |  | inconclusive: 89.1 µM [inhibitor, partial curve, poor fit]
CCC(=O)N/N=C/c1ccc(-c2ccc(Cl)cc2)o1 |  | inconclusive: 89.1 µM [inhibitor, single point]
CN(C)c1ccc(N2C(=O)CSC2=S)cc1 |  | active: 89.1 µM
CCOc1cc(-c2nn3cnnc3s2)cc(OCC)c1OCC |  | inconclusive: 25.1 µM [inhibitor, single point]
Cc1ccc(OCCn2c(=S)[nH]c3ccccc32)c(C(C)C)c1 |  | inconclusive: 56.2 µM [inhibitor, partial curve, poor fit]
Cc1cc(C)c(NC(=S)NCC2CCN(C(C)c3ccccc3)C2)c(C)c1 (stereo not drawn) |  | active: 44.7 µM
CCOc1ccc(-n2c(=O)c3c4c(sc3n(CC(=O)Nc3cccc(C(F)(F)F)c3)c2=O)CCCCC4)cc1 | inactive: 5.39% | 
Cc1ccc(-c2ccc(CCC(=O)O)o2)cc1 |  | inconclusive: 56.2 µM [inhibitor, partial curve, poor fit]
COc1ccc(Oc2ncc3nc(-c4cc(F)cc(F)c4)c(=O)n(C[C@H]4CCCO4)c3n2)cc1 | inactive: -4.89% | 
N#C/C(=C/c1ccc([N+](=O)[O-])cc1)C(=O)Nc1ccccc1O |  | inconclusive: 89.1 µM [inhibitor, single point]

Structure (SMILES) | max response, negative = inhibition | Potency
COc1ccc(NC(=O)C2CCC(CNS(=O)(=O)c3ccc(Br)s3)CC2)cc1OC (stereo not drawn) |  | inconclusive: 50.1 µM [inhibitor, partial curve, poor fit]
Cc1cc(N/N=C/c2ccco2)c2ccccc2n1 |  | inconclusive: 28.2 µM [inhibitor, partial curve, poor fit]
CCOc1ccc(NC(=S)NCc2cccnc2)cc1 | inactive: 8.37% | 
CCOc1ccc2nc(N(CCN(CC)CC)C(=O)c3ccc([N+](=O)[O-])cc3)sc2c1 | inactive: -2.56% | 
CCN(CC)c1ccc(/C=C2\C(=O)N(c3nnc(C)c(=O)[nH]3)N=C2C)cc1 |  | active: 15.8 µM
Cc1cnc(CNc2ncncc2-c2ccoc2)cn1 |  | inconclusive: 79.4 µM [inhibitor, partial curve]
C=C(C)CSC1=C(C#N)C(c2ccccc2Cl)CC(=O)N1 (stereo not drawn) |  | inconclusive: 79.4 µM [inhibitor, single point]
CN1CCN(C(c2ccccn2)c2cc(Cl)c3cccnc3c2O)CC1 (stereo not drawn) |  | active: 50.1 µM
CCc1ccc2c(CN(CC)Cc3nc4ccccc4c(=O)[nH]3)cc(=O)oc2c1 | inactive: -19.7% | 
CCC(C)[C@H](NC(=O)c1cc2cc(Cl)ccc2n1C)C(=O)N1CCC(C(=O)O)CC1 (stereo partly drawn) | inactive: 22% | 
Cc1ccc(C)c(N(CC(N)=O)S(C)(=O)=O)c1 |  | inconclusive: 15.8 µM [inhibitor, partial curve, poor fit]
Cc1cccc(C(=O)Nc2nnc(S(=O)(=O)N(C)Cc3ccco3)s2)c1 |  | active: 89.1 µM
Cc1ccc(NC(=O)CN2C(=O)C3(SCC(=O)N3c3cccc(Cl)c3)c3ccccc32)cc1C (stereo not drawn) | inactive: 1.19% | 
N#CCCN(C(=O)COC(=O)COc1ccc(Cl)cc1)c1ccccc1 |  | inconclusive: 89.1 µM [inhibitor, single point]
Cc1cc(SCC(=O)NCCC2=CCCCC2)nc2ccccc12 |  | inconclusive: 79.4 µM [inhibitor, single point]
O=C(Cn1nc(CNc2ccc(Cl)cc2)[n+]2c1CCCCC2)c1ccc(Cl)cc1 |  | active: 79.4 µM
Cc1ccc(S(=O)c2ccc(NC(=O)C3CC3)cc2C#N)cc1 (stereo not drawn) |  | active: 70.8 µM
COc1ccccc1-c1nc(S(=O)(=O)c2ccccc2)c(N2CCCCC2)o1 |  | inconclusive: 79.4 µM [inhibitor, partial curve, poor fit]
Cc1cc(C)nc(NN=CC2=C(N3CCOCC3)/C(=C/c3ccc(Cl)cc3)CC2)n1 |  | inconclusive: 100 µM [inhibitor, single point]
Cc1ccc(NC2Sc3ccccc3NC2=O)cc1 (stereo not drawn) |  | active: 11.2 µM
COc1cc(OC)cc(-c2nnc(SCc3ccc(C(=O)O)cc3)o2)c1 |  | inconclusive: 70.8 µM [inhibitor, partial curve]
COc1cc(O)c2c(c1)oc(=O)c1c3cc(O)c(O)cc3oc21 |  | inconclusive: 39.8 µM [inhibitor, partial curve, poor fit]
Cc1ccc(N=Cc2cc(Cl)cc(Cl)c2O)nc1 |  | inconclusive: 70.8 µM [inhibitor, partial curve]

Structure (SMILES) | max response, negative = inhibition | Potency
CCOC(=O)c1c(-c2ccccc2)csc1NC(=O)c1cc(-c2ccc(Cl)cc2)on1 |  | inconclusive: 100 µM [inhibitor, single point]
COC(=O)c1ccc2c(=O)n(CCCCCC(=O)N3CCN(c4ccc(OC)cc4)CC3)c(=O)[nH]c2c1 | inactive: 15.4% | 
CCCOc1ccc(/C=C2/C(=O)ON=C2C)cc1OCC |  | inconclusive: 79.4 µM [inhibitor, partial curve, poor fit]
COCCNC(=O)C1Cc2cc(S(=O)(=O)N3CCCC3)ccc2N1C(C)=O (stereo not drawn) | inactive: -8.85% | 
CN(Cc1ccccc1)C(=O)c1[nH]cnc1C(=O)Nc1nccs1 |  | inconclusive: 89.1 µM [inhibitor, single point]
CC(=O)N1CC[n+]2c(-c3ccc(Cl)cc3Cl)csc21 |  | active: 39.8 µM
CCN1CCN(C(=O)COCc2cc(-c3ccc4c(c3)OCO4)on2)CC1 |  | inconclusive: 0.355 µM [inhibitor, partial curve, poor fit]
Cc1cc(OC(C)C(=O)N(Cc2ccco2)C2CCS(=O)(=O)C2)ccc1Cl (stereo not drawn) |  | inconclusive: 100 µM [inhibitor, partial curve, poor fit]
COc1ccc(C(=O)/C=C/c2ccsc2)cc1CSCC(=O)O |  | inconclusive: 70.8 µM [inhibitor, partial curve, poor fit]
C=CCc1cccc(/C=N/NC(=O)c2ccccc2OC)c1O |  | inconclusive: 35.5 µM [inhibitor, single point]
C=Cc1c(C)c2cc3[nH]c(cc4nc(cc5nc(cc1[nH]2)C(C)=C5CCC(=O)O)C(CCC(=O)O)=C4C)c(C)c3C=C |  | active: 31.6 µM and active: 14.1 µM
CC(C)N(C(=O)Nc1ccc2nsnc2c1)C(C)C |  | active: 14.1 µM
CCC(C(=O)Nc1cc(-c2nc3cccnc3s2)ccc1C)c1ccccc1 (stereo not drawn) | inactive: 12% | 
CCCCCCCCSc1nnc(CSc2nc3nc(C)cc(C)n3n2)o1 | inactive: -5.81% | 
Cc1nc(C(=O)NCCO)cc2c1[nH]c1ccccc12 |  | inconclusive: 89.1 µM [inhibitor, partial curve]
O=S(=O)(c1ccc(NC(=S)NC2CCCC2)cc1)N1CCCC1 |  | inconclusive: 89.1 µM [inhibitor, single point]
CCN(CC)C1CC(=O)N(c2ccc(Br)cc2)C1=O (stereo not drawn) |  | inconclusive: 50.1 µM [inhibitor, partial curve, poor fit]
COc1ccc(N(C)S(=O)(=O)c2cccc(C(=O)N3CCN(c4ccccc4)CC3)c2)cc1 | inactive: 9.56% | 
Nc1ccccc1C(=O)NCc1ccccc1 |  | inconclusive: 39.8 µM [inhibitor, single point]
Cc1nn(C)c2c1c(-c1ccccc1)cc(=O)n2C(C)C(=O)NCc1ccc(F)cc1 (stereo not drawn) | inactive: -1.56% | 
O=C1CCC(C(=O)OCC(=O)c2ccccc2)N1 (stereo not drawn) |  | inconclusive: 79.4 µM [inhibitor, single point]
CCOc1cc(/C=C2/C(=O)N(c3ccccc3)N=C2C)ccc1OC(=O)c1cccs1 |  | inconclusive: 79.4 µM [inhibitor, partial curve, poor fit]
